Test results published in the supplement of paper PMC10849652.
Some of the results follow.

Amino acid sequences for entries named in this document (tags omitted). A change or cut given only in a name is not applied to a line headed by its entry.
UniProt Q06136: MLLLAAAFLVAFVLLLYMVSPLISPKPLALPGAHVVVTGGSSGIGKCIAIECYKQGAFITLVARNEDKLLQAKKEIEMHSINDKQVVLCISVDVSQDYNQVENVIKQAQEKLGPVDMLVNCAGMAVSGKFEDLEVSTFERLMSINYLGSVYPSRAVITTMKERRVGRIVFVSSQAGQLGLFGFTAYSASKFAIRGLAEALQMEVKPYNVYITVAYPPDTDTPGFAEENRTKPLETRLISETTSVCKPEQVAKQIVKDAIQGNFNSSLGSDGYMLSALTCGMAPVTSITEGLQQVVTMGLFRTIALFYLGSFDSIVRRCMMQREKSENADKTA
UniProt P41229: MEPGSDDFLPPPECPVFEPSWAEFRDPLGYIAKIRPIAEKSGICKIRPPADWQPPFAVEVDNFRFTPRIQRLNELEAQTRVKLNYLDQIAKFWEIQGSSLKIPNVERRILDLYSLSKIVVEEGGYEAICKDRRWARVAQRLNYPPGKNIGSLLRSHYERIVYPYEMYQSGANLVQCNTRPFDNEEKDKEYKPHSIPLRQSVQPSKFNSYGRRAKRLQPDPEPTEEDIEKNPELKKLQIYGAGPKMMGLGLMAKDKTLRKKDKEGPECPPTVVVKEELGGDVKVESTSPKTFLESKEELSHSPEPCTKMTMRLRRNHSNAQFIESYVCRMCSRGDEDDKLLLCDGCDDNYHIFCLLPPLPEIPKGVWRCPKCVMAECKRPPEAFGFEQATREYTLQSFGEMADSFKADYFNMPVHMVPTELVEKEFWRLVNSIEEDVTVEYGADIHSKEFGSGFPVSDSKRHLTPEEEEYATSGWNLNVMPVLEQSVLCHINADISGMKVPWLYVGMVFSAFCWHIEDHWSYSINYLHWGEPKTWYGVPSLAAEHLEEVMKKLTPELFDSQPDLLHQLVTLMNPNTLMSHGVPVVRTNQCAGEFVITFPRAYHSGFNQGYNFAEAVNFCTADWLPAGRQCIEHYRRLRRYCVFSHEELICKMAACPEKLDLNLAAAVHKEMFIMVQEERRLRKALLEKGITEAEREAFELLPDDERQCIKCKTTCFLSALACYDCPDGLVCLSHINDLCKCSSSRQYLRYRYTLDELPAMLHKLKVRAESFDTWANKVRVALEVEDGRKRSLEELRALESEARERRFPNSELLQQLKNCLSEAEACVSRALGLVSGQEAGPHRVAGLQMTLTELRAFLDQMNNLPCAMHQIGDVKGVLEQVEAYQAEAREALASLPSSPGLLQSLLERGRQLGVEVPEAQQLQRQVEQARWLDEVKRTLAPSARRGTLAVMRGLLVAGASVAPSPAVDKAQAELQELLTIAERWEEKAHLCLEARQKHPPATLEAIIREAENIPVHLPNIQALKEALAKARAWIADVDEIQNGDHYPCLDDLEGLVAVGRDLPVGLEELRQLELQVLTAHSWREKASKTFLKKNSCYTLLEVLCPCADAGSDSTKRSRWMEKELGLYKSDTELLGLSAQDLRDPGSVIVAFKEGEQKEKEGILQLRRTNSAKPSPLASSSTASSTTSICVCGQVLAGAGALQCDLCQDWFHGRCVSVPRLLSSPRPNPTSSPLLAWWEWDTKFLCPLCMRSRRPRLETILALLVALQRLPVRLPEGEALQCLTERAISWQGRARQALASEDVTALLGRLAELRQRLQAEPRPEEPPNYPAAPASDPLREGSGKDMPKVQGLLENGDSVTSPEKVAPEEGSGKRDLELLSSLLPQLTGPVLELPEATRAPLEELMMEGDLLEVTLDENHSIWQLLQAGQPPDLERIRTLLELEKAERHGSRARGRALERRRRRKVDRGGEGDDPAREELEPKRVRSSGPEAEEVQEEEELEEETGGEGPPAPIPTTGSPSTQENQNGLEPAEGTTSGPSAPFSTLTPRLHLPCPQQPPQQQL
UniProt Q15058: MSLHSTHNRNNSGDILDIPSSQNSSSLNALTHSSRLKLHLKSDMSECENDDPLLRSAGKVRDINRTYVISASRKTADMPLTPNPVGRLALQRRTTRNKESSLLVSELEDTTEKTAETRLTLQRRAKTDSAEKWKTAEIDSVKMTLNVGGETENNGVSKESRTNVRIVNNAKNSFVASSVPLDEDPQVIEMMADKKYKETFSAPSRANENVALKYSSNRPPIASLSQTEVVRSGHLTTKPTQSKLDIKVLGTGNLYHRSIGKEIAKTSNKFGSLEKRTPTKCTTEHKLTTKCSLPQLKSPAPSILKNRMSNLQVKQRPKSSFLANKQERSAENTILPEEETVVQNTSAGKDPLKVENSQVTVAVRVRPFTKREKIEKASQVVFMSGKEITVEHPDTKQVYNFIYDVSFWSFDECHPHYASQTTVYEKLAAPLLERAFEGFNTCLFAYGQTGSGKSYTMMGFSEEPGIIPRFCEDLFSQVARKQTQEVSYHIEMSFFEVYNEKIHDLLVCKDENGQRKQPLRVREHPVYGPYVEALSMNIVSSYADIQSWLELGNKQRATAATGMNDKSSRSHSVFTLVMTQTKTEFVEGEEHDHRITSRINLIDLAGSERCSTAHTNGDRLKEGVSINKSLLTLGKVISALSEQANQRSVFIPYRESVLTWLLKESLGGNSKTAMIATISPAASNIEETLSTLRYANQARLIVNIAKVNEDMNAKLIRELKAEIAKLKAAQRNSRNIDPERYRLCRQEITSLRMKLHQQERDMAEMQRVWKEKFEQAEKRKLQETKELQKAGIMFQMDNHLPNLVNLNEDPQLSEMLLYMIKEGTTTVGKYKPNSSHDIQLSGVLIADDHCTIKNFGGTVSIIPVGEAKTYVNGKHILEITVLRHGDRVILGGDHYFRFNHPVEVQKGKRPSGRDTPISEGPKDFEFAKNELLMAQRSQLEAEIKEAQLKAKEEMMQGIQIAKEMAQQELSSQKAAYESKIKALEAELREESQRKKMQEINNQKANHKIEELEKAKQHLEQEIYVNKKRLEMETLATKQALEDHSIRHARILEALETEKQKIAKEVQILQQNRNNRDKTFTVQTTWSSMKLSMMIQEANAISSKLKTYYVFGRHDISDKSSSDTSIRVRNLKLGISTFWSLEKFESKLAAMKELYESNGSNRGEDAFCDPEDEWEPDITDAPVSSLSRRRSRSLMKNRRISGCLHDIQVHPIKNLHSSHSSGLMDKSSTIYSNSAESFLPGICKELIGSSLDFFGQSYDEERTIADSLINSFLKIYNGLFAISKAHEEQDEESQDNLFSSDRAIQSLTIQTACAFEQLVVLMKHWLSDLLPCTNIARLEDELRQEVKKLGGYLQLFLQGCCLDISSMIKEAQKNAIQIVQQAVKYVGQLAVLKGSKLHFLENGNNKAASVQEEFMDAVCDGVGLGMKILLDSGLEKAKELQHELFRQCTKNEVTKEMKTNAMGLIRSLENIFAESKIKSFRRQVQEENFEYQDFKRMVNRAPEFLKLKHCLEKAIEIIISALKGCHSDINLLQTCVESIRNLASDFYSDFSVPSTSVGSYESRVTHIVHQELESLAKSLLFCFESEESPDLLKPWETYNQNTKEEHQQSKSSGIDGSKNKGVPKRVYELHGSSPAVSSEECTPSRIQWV
UniProt Q96EK5: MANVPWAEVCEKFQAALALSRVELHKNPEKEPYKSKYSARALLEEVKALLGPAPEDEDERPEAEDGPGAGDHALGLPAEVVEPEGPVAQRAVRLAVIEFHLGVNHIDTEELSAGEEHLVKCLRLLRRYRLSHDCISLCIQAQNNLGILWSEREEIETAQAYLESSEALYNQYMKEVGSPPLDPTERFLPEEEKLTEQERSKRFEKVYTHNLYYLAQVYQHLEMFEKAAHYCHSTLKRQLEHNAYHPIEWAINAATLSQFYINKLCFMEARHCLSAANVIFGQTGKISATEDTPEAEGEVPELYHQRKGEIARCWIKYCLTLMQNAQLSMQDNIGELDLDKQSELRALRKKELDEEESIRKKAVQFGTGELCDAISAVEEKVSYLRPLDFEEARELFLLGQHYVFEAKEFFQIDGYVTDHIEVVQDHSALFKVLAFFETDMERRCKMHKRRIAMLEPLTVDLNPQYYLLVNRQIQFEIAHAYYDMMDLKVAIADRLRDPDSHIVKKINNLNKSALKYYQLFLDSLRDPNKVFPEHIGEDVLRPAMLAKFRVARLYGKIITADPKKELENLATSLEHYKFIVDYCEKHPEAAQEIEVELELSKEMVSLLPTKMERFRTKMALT
UniProt Q9NQT8: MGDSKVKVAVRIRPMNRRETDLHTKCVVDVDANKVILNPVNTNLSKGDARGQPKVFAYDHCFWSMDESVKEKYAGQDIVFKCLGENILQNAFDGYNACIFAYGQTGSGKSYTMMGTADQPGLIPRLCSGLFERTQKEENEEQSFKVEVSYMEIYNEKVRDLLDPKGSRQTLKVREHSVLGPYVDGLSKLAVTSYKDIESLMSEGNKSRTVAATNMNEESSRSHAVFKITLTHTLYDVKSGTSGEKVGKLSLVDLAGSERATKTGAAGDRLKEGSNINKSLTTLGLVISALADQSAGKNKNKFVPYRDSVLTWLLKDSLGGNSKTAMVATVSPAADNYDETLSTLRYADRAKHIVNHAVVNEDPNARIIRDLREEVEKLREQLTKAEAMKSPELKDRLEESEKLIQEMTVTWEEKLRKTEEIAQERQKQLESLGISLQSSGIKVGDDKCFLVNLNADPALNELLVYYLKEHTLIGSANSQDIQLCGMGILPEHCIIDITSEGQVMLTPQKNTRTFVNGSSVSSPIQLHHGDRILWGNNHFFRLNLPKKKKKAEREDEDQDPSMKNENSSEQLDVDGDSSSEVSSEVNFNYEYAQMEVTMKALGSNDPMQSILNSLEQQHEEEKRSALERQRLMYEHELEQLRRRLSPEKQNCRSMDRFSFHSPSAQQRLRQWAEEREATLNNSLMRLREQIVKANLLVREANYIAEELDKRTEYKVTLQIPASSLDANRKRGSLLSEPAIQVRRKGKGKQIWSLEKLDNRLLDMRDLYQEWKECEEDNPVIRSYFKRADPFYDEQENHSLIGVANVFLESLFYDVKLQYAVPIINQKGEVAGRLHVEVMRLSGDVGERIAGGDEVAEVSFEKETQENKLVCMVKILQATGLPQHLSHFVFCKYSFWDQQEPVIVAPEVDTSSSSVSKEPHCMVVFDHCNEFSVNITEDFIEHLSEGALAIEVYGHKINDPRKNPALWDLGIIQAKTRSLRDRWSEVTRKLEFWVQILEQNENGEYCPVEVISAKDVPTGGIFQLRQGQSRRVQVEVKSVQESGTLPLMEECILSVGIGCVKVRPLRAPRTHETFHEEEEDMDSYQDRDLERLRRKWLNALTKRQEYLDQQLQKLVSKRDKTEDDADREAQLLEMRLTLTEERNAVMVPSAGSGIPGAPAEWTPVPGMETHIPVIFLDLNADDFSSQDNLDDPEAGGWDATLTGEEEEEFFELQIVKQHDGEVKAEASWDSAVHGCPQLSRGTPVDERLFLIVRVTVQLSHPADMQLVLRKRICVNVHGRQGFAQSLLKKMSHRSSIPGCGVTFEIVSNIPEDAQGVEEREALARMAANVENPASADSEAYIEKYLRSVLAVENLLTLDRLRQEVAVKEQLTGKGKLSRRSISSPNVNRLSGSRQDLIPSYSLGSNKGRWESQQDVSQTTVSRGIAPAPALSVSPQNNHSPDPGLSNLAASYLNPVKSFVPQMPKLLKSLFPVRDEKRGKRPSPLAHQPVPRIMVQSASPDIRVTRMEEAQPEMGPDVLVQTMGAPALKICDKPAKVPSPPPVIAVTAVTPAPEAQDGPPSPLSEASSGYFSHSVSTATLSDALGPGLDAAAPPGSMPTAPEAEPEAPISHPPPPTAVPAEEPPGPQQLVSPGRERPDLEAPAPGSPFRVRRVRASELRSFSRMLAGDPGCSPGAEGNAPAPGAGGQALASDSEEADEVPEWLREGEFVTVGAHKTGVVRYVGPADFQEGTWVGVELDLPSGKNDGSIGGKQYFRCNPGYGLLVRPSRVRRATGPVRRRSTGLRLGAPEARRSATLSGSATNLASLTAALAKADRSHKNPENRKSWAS
UniProt Q9BXK1: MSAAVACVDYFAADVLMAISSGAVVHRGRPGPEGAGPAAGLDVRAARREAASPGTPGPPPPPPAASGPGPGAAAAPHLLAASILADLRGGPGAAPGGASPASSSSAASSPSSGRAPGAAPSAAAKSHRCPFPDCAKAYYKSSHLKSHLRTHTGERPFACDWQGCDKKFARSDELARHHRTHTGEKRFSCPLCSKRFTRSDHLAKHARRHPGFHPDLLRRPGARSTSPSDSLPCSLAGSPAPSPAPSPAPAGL
UniProt Q8IXV7: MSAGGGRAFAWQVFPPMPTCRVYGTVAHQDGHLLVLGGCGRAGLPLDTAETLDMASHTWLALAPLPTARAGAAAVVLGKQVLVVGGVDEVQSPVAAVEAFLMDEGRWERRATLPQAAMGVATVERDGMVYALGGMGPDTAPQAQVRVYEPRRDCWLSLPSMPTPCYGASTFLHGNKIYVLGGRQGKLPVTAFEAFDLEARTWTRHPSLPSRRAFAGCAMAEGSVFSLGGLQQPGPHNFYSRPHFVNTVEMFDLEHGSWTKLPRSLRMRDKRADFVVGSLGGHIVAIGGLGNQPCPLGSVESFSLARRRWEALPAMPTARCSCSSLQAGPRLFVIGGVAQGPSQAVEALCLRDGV

Assays:
Assay in all cases: log2 fold change, soluble protein after heating vs DMSO (PISA); higher = thermal stabilisation; K562 cells, 10 uM, 30 min; active = over 0.2 and 3.5 SD of the protein, either way, in both replicates (recomputed)
[1] = compound: NC(=O)Nc1cc(-c2cccc(F)c2)sc1C(=O)N[C@H]1CCCNC1
Method in brief: (§1)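 K562 cells (2×10^6 cells/mL) were treated with 10 μM compound for 30 min, and aliquots were heated for 3 min over 48°C-58°C. Pooled aliquots were extracted in PBS with 0.5% NP-40 at 4°C, and the supernatant after 21,000xg for 90 min was measured by TMTpro 16plex LC-MS/MS with channel sums equalised. Reported thermal stability, relative to control samples and from duplicates, is a log2 fold change.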

[2] = compound: NC(=O)c1cnc(N[C@@H]2CCCC[C@@H]2N)nc1Nc1cccc(-n2nccn2)c1
Method in brief: as §1

[3] = compound: NC1(c2ccc(-c3nc4ccn5c(=O)[nH]nc5c4cc3-c3ccccc3)cc2)CCC1
Method in brief: as §1

[4] = compound: NCC(=O)Nc1ccc(-n2nc(C(F)(F)F)cc2-c2ccc3c(ccc4ccccc43)c2)cc1
Method in brief: as §1

entinostat = compound: Nc1ccccc1NC(=O)c1ccc(CNC(=O)OCc2cccnc2)cc1 [entinostat]
Method in brief: as §1

vorinostat = compound: O=C(CCCCCCC(=O)Nc1ccccc1)NO [vorinostat]
Method in brief: as §1

citarinostat = compound: O=C(CCCCCCNC(=O)c1cnc(N(c2ccccc2)c2ccccc2Cl)nc1)NO [citarinostat]
Method in brief: as §1

silmitasertib = compound: O=C(O)c1ccc2c(c1)nc(Nc1cccc(Cl)c1)c1ccncc12 [silmitasertib]
Method in brief: as §1

[5] = compound: O=C1NC(=O)C(c2cnc3ccccn23)=C1c1cn2c3c(cc(F)cc13)CN(C(=O)N1CCCCC1)CC2
Method in brief: as §1

[6] = compound: c1cc(OCCN2CCCCC2)cc(-c2n[nH]c3ccc(-c4nnc[nH]4)cc23)c1
Method in brief: as §1

Measured: log2 fold change

KIF23 (UniProt Q02241)
inactive: [1] -0.022 | [2] -0.048 | [3] 0.007 | [4] -0.082 | entinostat -0.062 | vorinostat 0.199 | citarinostat 0.047 | silmitasertib -0.034 | [5] 0.078 | [6] -0.075

KDSR (UniProt Q06136)
inactive: [1] 0.022 | [2] -0.007 | [3] -0.031 | [4] 0.012 | entinostat -0.034 | vorinostat -0.027 | citarinostat 0.03 | silmitasertib -0.003 | [5] 0.018 | [6] 0.035

KDM1A isoform 2 (UniProt O60341)
inactive: [1] 0.055 | [2] -0.038 | [3] -0.063 | [4] 0.012 | entinostat 0.155 | vorinostat 0.135 | citarinostat 0.007 | silmitasertib 0 | [5] -0.063 | [6] -0.064

KIF21A isoform 4 (UniProt Q7Z4S6)
inactive: [1] -0.068 | [2] 0.055 | [3] -0.049 | [4] -0.093 | entinostat 0.01 | vorinostat 0.012 | citarinostat 0.002 | silmitasertib 0.033 | [5] 0.213 | [6] -0.087

KCTD10 (UniProt Q9H3F6)
inactive: [1] 0.065 | [2] 0.226 | [3] 0.028 | [4] 0.077 | entinostat -0.014 | vorinostat -0.001 | citarinostat -0.05 | silmitasertib -0.042 | [5] -0.088 | [6] -0.025

Random excerpt: 2 entries already listed
KCTD10 (UniProt Q9H3F6)
inactive: [1] 0.065 | [2] 0.226 | [3] 0.028 | [4] 0.077 | entinostat -0.014 | vorinostat -0.001 | citarinostat -0.05 | silmitasertib -0.042 | [5] -0.088 | [6] -0.025

KDM1A isoform 2 (UniProt O60341)
inactive: [1] 0.055 | [2] -0.038 | [3] -0.063 | [4] 0.012 | entinostat 0.155 | vorinostat 0.135 | citarinostat 0.007 | silmitasertib 0 | [5] -0.063 | [6] -0.064

Later entries:

KATNAL1 (UniProt Q9BW62)
inactive: [1] -0.166 | [2] -0.22 | [4] 0.012 | entinostat 0.138 | [5] -0.324

KDM5C (UniProt P41229)
inactive: [1] -0.006 | [2] 0 | [3] 0.005 | [4] -0.248 | entinostat 0.145 | vorinostat 0.018 | citarinostat 0.13 | silmitasertib -0.131 | [5] -0.029 | [6] 0.096

KIF14 (UniProt Q15058)
inactive: [1] -0.077 | [2] 0.003 | [3] -0.158 | [4] 0.001 | entinostat -0.061 | citarinostat 0.074 | silmitasertib 0.158 | [5] 0.081 | [6] -0.135

KIFBP (UniProt Q96EK5)
inactive: [1] 0.002 | [2] -0.166 | [3] -0.117 | [4] -0.091 | entinostat 0.059 | vorinostat 0.088 | citarinostat 0.043 | silmitasertib -0.02 | [5] 0.024 | [6] -0.056

JAG2 (UniProt Q9Y219)
inactive: [1] 0.006 | [2] 0.125 | [4] -0.033 | entinostat -0.01 | [5] 0.051

KBTBD4 isoform 2 (UniProt Q9NVX7)
inactive: [1] 0.03 | [2] -0.027 | [3] -0.056 | [4] -0.01 | entinostat -0.045 | citarinostat 0.018 | silmitasertib -0.037 | [5] -0.112 | [6] 0.068

KCNN4 (UniProt O15554)
inactive: [1] 0.289 | [2] 0.076 | [3] -0.093 | [4] 0.145 | entinostat 0.049 | citarinostat -0.015 | silmitasertib 0.153 | [6] -0.239

KLHDC3 (UniProt Q9BQ90)
inactive: [1] -0.026 | [2] 0.055 | [4] 0.067 | entinostat 0.003 | vorinostat 0.1 | citarinostat -0.08 | [5] 0.042 | [6] -0.134

KIF3A (UniProt Q9Y496)
inactive: [1] 0.075 | [2] 0.078 | [3] -0.011 | [4] -0.014 | entinostat -0.011 | vorinostat -0.137 | citarinostat -0.076 | silmitasertib -0.068 | [5] -0.048 | [6] -0.051

JPT2 isoform 2 (UniProt Q9H910)
inactive: [1] 0.015 | [2] 0.11 | [3] 0.074 | [4] 0.18 | entinostat 0.033 | citarinostat 0.1 | silmitasertib -0.233 | [6] 0.046

KAT8 isoform 2 (UniProt Q9H7Z6)
inactive: [1] 0.021 | [2] -0.179 | [3] -0.136 | [4] 0.049 | entinostat 0.014 | vorinostat 0.013 | silmitasertib 0.017

KIF13B (UniProt Q9NQT8)
inactive: [1] -0.131 | [2] 0.021 | [3] 0.242 | entinostat -0.029 | vorinostat -0.107 | citarinostat -0.127 | silmitasertib 0.166 | [5] 0.009 | [6] -0.066

KLF16 (UniProt Q9BXK1)
inactive: [1] 0.051 | [2] -0.054 | [3] 0.026 | [4] 0.193 | entinostat -0.047 | vorinostat -0.077 | citarinostat -0.015 | silmitasertib 0.008 | [6] -0.038

KRAS isoform 2 (UniProt P01116)
inactive: [1] -0.07 | [2] 0.039 | [3] 0.091 | [4] 0.061 | entinostat -0.015 | vorinostat -0.032 | citarinostat -0.018 | silmitasertib 0.001 | [5] -0.019 | [6] -0.032

KAT7 (UniProt O95251)
inactive: [1] -0.066 | [2] 0.037 | [3] -0.001 | [4] 0.008 | entinostat -0.067 | citarinostat -0.004 | silmitasertib -0.151 | [6] 0.024

KLHL7 (UniProt Q8IXQ5)
inactive: [1] -0.027 | [2] 0.16 | [4] 0.249 | entinostat 0.034 | [5] -0.02

KLF3 (UniProt P57682)
inactive: [1] 0.073 | [2] 0.029 | [3] 0.044 | [4] 0.018 | entinostat -0.08 | vorinostat 0.192 | silmitasertib 0.101 | [5] -0.011

KARS1 (UniProt Q15046)
inactive: [1] 0.075 | [2] 0.065 | [3] 0.147 | [4] 0.07 | entinostat -0.042 | vorinostat 0.059 | citarinostat -0.075 | silmitasertib 0.124 | [5] 0.222 | [6] -0.145

KPNA2 (UniProt P52292)
inactive: [1] 0.088 | [2] 0.026 | [3] 0.266 | [4] 0.062 | entinostat 0.085 | vorinostat 0.191 | citarinostat 0.024 | silmitasertib 0.172 | [5] 0.271 | [6] -0.114

ITSN1 (UniProt Q15811)
inactive: [1] 0.023 | [2] -0.024 | [3] 0.23 | entinostat 0.271 | vorinostat 0.224 | silmitasertib 0.158 | [5] 0.097

KLHDC8B (UniProt Q8IXV7)
inactive: [1] 0 | [2] 0.029 | [3] -0.252 | [4] -0.023 | entinostat -0.044 | vorinostat -0.157 | silmitasertib 0.319
